The exact form of at least one protein or probe is not confirmed.
Target: His-p65 (UniProt Q04206)
Assay: EMSA
Settings: 100 nM p65, displaced from the probe by rising TonEBP sNT (100-500 nM); EMSA: 10 mM Tris-HCl pH 7.5, 10 mM NaCl, 40 mM KCl, 1 mM MgCl2, 1 mM EDTA, 1 mM DTT, 50 ug/mL BSA, 100 nM probe, 25 min room temp, 0.8% agarose; recombinant protein; protein details: N-terminal His; label: Cy5.5

Chains of the proteins cited; added tags and fusions are not shown. Lines headed by an entry give the natural chain unless they say otherwise; changes in a name come on top.
UniProt Q04206: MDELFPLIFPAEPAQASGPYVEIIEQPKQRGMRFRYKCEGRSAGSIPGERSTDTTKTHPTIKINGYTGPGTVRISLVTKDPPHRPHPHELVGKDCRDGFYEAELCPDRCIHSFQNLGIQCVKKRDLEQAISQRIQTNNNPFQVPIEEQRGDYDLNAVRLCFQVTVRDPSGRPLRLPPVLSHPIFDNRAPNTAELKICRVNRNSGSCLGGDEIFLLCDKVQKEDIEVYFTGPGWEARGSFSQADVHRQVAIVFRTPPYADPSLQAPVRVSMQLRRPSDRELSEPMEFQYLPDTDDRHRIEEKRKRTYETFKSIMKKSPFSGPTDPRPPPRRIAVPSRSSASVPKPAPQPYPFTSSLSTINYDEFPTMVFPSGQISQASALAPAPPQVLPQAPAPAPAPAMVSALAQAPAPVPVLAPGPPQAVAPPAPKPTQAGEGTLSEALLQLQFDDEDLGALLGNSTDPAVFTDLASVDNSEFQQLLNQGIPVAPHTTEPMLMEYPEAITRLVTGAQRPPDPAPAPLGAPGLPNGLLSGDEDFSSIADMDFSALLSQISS

## ATAGGAAAACTGAAAGGGAGAAGTGAAAGTGGGAAATTCC (double strand) [Probe IRF3/p65 (Cy5.5)]
  binding result: binds
